This note sets out measurements from the supplement of paper PMC6331611.

This assay concerns Salmonella enterica serovar Typhimurium SL1344. Kind of assay: normalized intracellular growth (luminescence, IQM-normalized) in RAW264.7 macrophages (fraction of plate interquartile mean); higher = more bacterial growth (less inhibition). Particulars: 10 µM.

± gives the standard deviation of the averaged measurements. Over roughly 1,600 compounds, “normalized intracellular growth (luminescence, IQM-normalized) in RAW264.7 macrophages” has its median near 1; the lowest 2% begin near 0.43. The list shows a part of the results.

On to `CC1(C)S[C@@H]2[C@H](NC(=O)[C@H](N)c3ccccc3)C(=O)N2[C@H]1C(=O)O`, for which the normalized intracellular growth by setting is: (time point: T3 (3 h)) 1.01 ± 0.043; (time point: Tfinal (~6 h)) 0.903 ± 0.052.

As to `O=c1n(CCCN2CCN(c3cccc(Cl)c3)CC2)nc2ccccn12`, the normalized intracellular growth runs as follows: (time point: T3 (3 h)) 1.13 ± 0.13; (time point: Tfinal (~6 h)) 1.36 ± 0.22.

In the case of `CC(=O)NCCCCCC(=O)O`, the normalized intracellular growth reads like this: (time point: T3 (3 h)) 0.997 ± 0.019; (time point: Tfinal (~6 h)) 1.02 ± 0.17.

Consider `O=C(O)c1cc(=O)[nH]c(=O)[nH]1`, for which the normalized intracellular growth reads like this: (time point: T3 (3 h)) 0.953 ± 0.054; (time point: Tfinal (~6 h)) 0.959 ± 0.14.

For `C[C@]12CCC(=O)C=C1[C@@H]1C[C@@H]1[C@H]1[C@@H]3[C@@H]4C[C@@H]4[C@@]4(CCC(=O)O4)[C@@]3(C)CC[C@@H]12`, the normalized intracellular growth runs as follows: (time point: T3 (3 h)) 0.9497 ± 0.0089; (time point: Tfinal (~6 h)) 0.981 ± 0.18.

For the molecule `Nc1cc(N2CCCCC2)nc(N)[n+]1[O-]`, the normalized intracellular growth by setting is: (time point: T3 (3 h)) 1.03 ± 0.079; (time point: Tfinal (~6 h)) 0.827 ± 0.02.

`O=C(O)c1ccccc1OP(=O)(O)O` displayed a normalized intracellular growth (time point: T3 (3 h)) of 0.948 ± 0.031 and a normalized intracellular growth (time point: Tfinal (~6 h)) of 1.06 ± 0.088.

For the molecule `C/C=C(/C(=C/C)c1ccc(O)cc1)c1ccc(O)cc1`, the normalized intracellular growth runs as follows: (time point: T3 (3 h)) 1.02 ± 0.045; (time point: Tfinal (~6 h)) 1.1 ± 0.051.

On to `Cc1ncc([N+](=O)[O-])n1CC(C)O` (centres undefined), for which the normalized intracellular growth reads like this: (time point: T3 (3 h)) 1.09 ± 0.064; (time point: Tfinal (~6 h)) 1.04 ± 0.18.

With `CC1=C(/C=C/C(C)=C/C=C/C(C)=C/CO)C(C)(C)CCC1`, the normalized intracellular growth runs as follows: (time point: T3 (3 h)) 0.817 ± 0.0092; (time point: Tfinal (~6 h)) 0.92 ± 0.058.

For the molecule `CC(=O)O[C@H]1C(=O)[C@@]2(C)[C@H]([C@H](OC(=O)c3ccccc3)[C@]3(O)C[C@H](OC(=O)[C@H](O)[C@@H](NC(=O)c4ccccc4)c4ccccc4)C(C)=C1C3(C)C)[C@]1(OC(C)=O)CO[C@@H]1C[C@@H]2O`, the normalized intracellular growth came out at 1.01 ± 0.019 (time point: T3 (3 h)) and 1.14 ± 0.18 (time point: Tfinal (~6 h)).

On to `CCCN(CCC)CCc1cccc2c1CC(=O)N2`, for which the normalized intracellular growth (time point: T3 (3 h)) came to 0.992 ± 0.072 and the normalized intracellular growth (time point: Tfinal (~6 h)) amounted to 1.11 ± 0.28.

As for `O[C@H]1[C@H](O)[C@@H](O)[C@H](O)[C@@H](O)[C@H]1O`, the normalized intracellular growth amounted to 1.03 ± 0.069 (time point: T3 (3 h)) and 0.958 ± 0.043 (time point: Tfinal (~6 h)).

Consider `COc1cccc2c1C(=O)c1c(O)c3c(c(O)c1C2=O)C[C@@](O)(C(=O)CO)C[C@@H]3O[C@H]1C[C@H](N)[C@@H](O)[C@H](C)O1`, for which the normalized intracellular growth reads like this: (time point: T3 (3 h)) 0.93 ± 0.027; (time point: Tfinal (~6 h)) 0.612 ± 0.21.

As to `Cc1nc2ccccn2c(=O)c1CCN1CCC(C(=O)c2ccc(F)cc2)CC1`, the normalized intracellular growth (time point: T3 (3 h)) was 1.08 ± 0.03 and the normalized intracellular growth (time point: Tfinal (~6 h)) was 1.13 ± 0.051.

In the case of `O=C(CCNNC(=O)c1ccncc1)NCc1ccccc1`, the normalized intracellular growth (time point: T3 (3 h)) was 1.08 ± 0.084 and the normalized intracellular growth (time point: Tfinal (~6 h)) was 0.856 ± 0.1.

`NC(=O)c1cnccn1`: the normalized intracellular growth was 1.07 ± 0.013 (time point: T3 (3 h)) and 1.14 ± 0.083 (time point: Tfinal (~6 h)).

On to `CC(C)(C)CC(C)(C)c1cc(Cc2cc(C(C)(C)CC(C)(C)C)cc(-n3nc4ccccc4n3)c2O)c(O)c(-n2nc3ccccc3n2)c1`, for which the normalized intracellular growth by setting is: (time point: T3 (3 h)) 1.02 ± 0.096; (time point: Tfinal (~6 h)) 1.19 ± 0.3.

For the molecule `C[C@@H](O)[C@H]1C(=O)N2C(C(=O)O)=C(S[C@@H]3CN[C@H](C(=O)N(C)C)C3)[C@H](C)[C@H]12`, the normalized intracellular growth runs as follows: (time point: T3 (3 h)) 0.957 ± 0.043; (time point: Tfinal (~6 h)) 0.98 ± 0.062.

Consider `Cc1cc(C)cc(OCC2CNC(=O)O2)c1` (centres undefined), for which the normalized intracellular growth by setting is: (time point: T3 (3 h)) 1.04 ± 0.012; (time point: Tfinal (~6 h)) 1.14 ± 0.039.

`CC(=O)O[C@H]1C[C@@H]2CC[C@@H]3[C@H](CC[C@@]4(C)[C@H]3C[C@H]([N+]3(C)CCCCC3)[C@@H]4OC(C)=O)[C@@]2(C)C[C@@H]1N1CCCCC1` registered a normalized intracellular growth (time point: T3 (3 h)) of 0.918 ± 0.046 and a normalized intracellular growth (time point: Tfinal (~6 h)) of 0.631 ± 0.23.

Regarding `C[C@]12C=CC(=O)C=C1CC[C@H]1[C@@H]3C[C@@H](O)[C@](O)(C(=O)CO)[C@@]3(C)C[C@H](O)[C@@]12F`, the normalized intracellular growth by setting is: (time point: T3 (3 h)) 0.79 ± 0.046; (time point: Tfinal (~6 h)) 1.28 ± 0.072.

For the molecule `CCN(CC)C(=O)/C(C#N)=C/c1cc(O)c(O)c([N+](=O)[O-])c1`, the normalized intracellular growth by setting is: (time point: T3 (3 h)) 1.03 ± 0.044; (time point: Tfinal (~6 h)) 1.12 ± 0.092.

Molecule `C[C@@H]1O[C@@H](OC[C@H]2O[C@@H](Oc3c(-c4ccc(OCCO)c(OCCO)c4)oc4cc(OCCO)cc(O)c4c3=O)[C@H](O)[C@@H](O)[C@@H]2O)[C@H](O)[C@H](O)[C@H]1O` registered a normalized intracellular growth (time point: T3 (3 h)) of 0.951 ± 0.034 and a normalized intracellular growth (time point: Tfinal (~6 h)) of 0.746 ± 0.24.

On to `OC(c1cc(C(F)(F)F)nc2c(C(F)(F)F)cccc12)C1CCCCN1` (centres undefined), for which the normalized intracellular growth came out at 0.943 ± 0.027 (time point: T3 (3 h)) and 1.04 ± 0.026 (time point: Tfinal (~6 h)).

As to `CNCCCC12CCC(c3ccccc31)c1ccccc12`, the normalized intracellular growth (time point: T3 (3 h)) is 0.587 ± 0.078 and the normalized intracellular growth (time point: Tfinal (~6 h)) was found to be 1.21 ± 0.31.

Take `CCCCCC(=O)O[C@]1(C(C)=O)CC[C@H]2[C@@H]3CCC4=CC(=O)CC[C@]4(C)[C@H]3CC[C@@]21C`: the normalized intracellular growth came out at 1.04 ± 0.038 (time point: T3 (3 h)) and 0.973 ± 0.43 (time point: Tfinal (~6 h)).

In the case of `CCCCCNC(=N)N/N=C/c1c[nH]c2ccc(OC)cc12`, the normalized intracellular growth (time point: T3 (3 h)) stood at 1.05 ± 0.1 and the normalized intracellular growth (time point: Tfinal (~6 h)) was 1.08 ± 0.037.

In the case of `COc1c(C)c2c(c(O)c1C/C=C(\C)CCC(=O)O)C(=O)OC2`, the normalized intracellular growth is, setting by setting: (time point: T3 (3 h)) 0.937 ± 0.043; (time point: Tfinal (~6 h)) 0.932 ± 0.048.

Take `O=C(O)c1ccc(S(=O)(=O)N(Cl)Cl)cc1`: the normalized intracellular growth came out at 0.9347 ± 0.0043 (time point: T3 (3 h)) and 0.992 ± 0.067 (time point: Tfinal (~6 h)).

Consider `O=C(Oc1ccccc1C(=O)O)c1ccccc1O`, for which the normalized intracellular growth came to 0.986 ± 0.018 (time point: T3 (3 h)) and 0.909 ± 0.032 (time point: Tfinal (~6 h)).

As for `Nc1ccc(C(=O)O)cc1`, the normalized intracellular growth runs as follows: (time point: T3 (3 h)) 1.023 ± 0.0022; (time point: Tfinal (~6 h)) 0.829 ± 0.11.

For the molecule `CCN1CCCC(OC(=O)C(c2ccccc2)c2ccccc2)C1` (centres undefined), the normalized intracellular growth is, setting by setting: (time point: T3 (3 h)) 1.01 ± 0.057; (time point: Tfinal (~6 h)) 0.964 ± 0.068.

The molecule `NCCNCCNCCN` yielded a normalized intracellular growth (time point: T3 (3 h)) of 0.972 ± 0.044 and a normalized intracellular growth (time point: Tfinal (~6 h)) of 1.2 ± 0.037.

On to `CN(C/C=C/c1ccccc1)Cc1cccc2ccccc12`, for which the normalized intracellular growth runs as follows: (time point: T3 (3 h)) 0.953 ± 0.033; (time point: Tfinal (~6 h)) 1.11 ± 0.035.

As to `CN1C(=O)OC(C)(C)C1=O`, the normalized intracellular growth was 1 ± 0.034 (time point: T3 (3 h)) and 1.07 ± 0.19 (time point: Tfinal (~6 h)).

As for `CC(=O)CCCCn1c(=O)c2c(ncn2C)n(C)c1=O`, the normalized intracellular growth was 1.05 ± 0.038 (time point: T3 (3 h)) and 1.04 ± 0.054 (time point: Tfinal (~6 h)).

In turn, `C[C@H]1O[C@@H](n2cc(F)c(=O)[nH]c2=O)[C@H](O)[C@@H]1O` returned a normalized intracellular growth (time point: T3 (3 h)) of 0.932 ± 0.037 and a normalized intracellular growth (time point: Tfinal (~6 h)) of 0.828 ± 0.11.

With `CCCCNc1cc(C(=O)O)cc(S(N)(=O)=O)c1Oc1ccccc1`, the normalized intracellular growth runs as follows: (time point: T3 (3 h)) 1.07 ± 0.04; (time point: Tfinal (~6 h)) 0.723 ± 0.32.

Consider `C[C@H](Cn1cnc2c(N)ncnc21)OCP(=O)(O)O`, for which the normalized intracellular growth runs as follows: (time point: T3 (3 h)) 1.03 ± 0.072; (time point: Tfinal (~6 h)) 1.08 ± 0.036.

Consider `CC(C)n1c(/C=C/C(O)CC(O)CC(=O)O)c(-c2ccc(F)cc2)c2ccccc21` (centres undefined), for which the normalized intracellular growth by setting is: (time point: T3 (3 h)) 1 ± 0.059; (time point: Tfinal (~6 h)) 1.27 ± 0.16.

Consider `CCCCC/C=C/CCC(=O)N[C@H]1[C@H](Oc2c3cc4cc2Oc2ccc(cc2Cl)[C@@H](O[C@@H]2O[C@H](CO)[C@@H](O)[C@H](O)[C@H]2NC(C)=O)[C@@H]2NC(=O)[C@H](NC(=O)[C@@H]4NC(=O)[C@H]4NC(=O)C(Cc5ccc(c(Cl)c5)O3)NC(=O)[C@H](N)c3ccc(O)c(c3)Oc3cc(O)cc4c3)c3ccc(O)c(c3)-c3c(OC4O[C@H](CO)[C@@H](O)[C@H](O)[C@@H]4O)cc(O)cc3[C@@H](C(=O)O)NC2=O)O[C@H](CO)[C@@H](O)[C@@H]1O` (some centres undefined) [TEICOPLANIN [A(2-1) shown]], for which the normalized intracellular growth runs as follows: (time point: T3 (3 h)) 0.955 ± 0.07; (time point: Tfinal (~6 h)) 1.07 ± 0.065.
